Record: PubChem BioAssay AID686937 (Drosophila RNAi Screening Center, 2013)
Purpose: 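Genes in the fly needed for secretion of protein constitutively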 (primary screen). Cells: Drosophila S2 cells expressing secreted horseradish peroxidase. Reagent: long dsRNA against Drosophila genes. Duration: about 5.5 days (5 days dsRNA, then 12 h reporter induction). Conditions: reporter expression induced after 5 days of dsRNA, read 12 h later; inducer not stated. Measured: 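After 5 days of dsRNA and 12 h of reporter induction, medium peroxidase read by chemiluminescence and scored as per-plate z-score; higher values mean more reporter released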. Direction: z-score: higher = more reporter secreted into medium.
The deposit covers about 23,000 reagents; this is a random part of those with a known target gene and a result. 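Reduced-secretion tags in replicate 1 do not always agree with the z-scores; no criterion for assigning the tags was given.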 Not stated in the record: the amount of reagent.

gene,DRSC id,"z-score, replicate 1","z-score, replicate 2","z-score, replicate 3","z-score, replicate 4","phenotype, replicate 1"
CG16820,DRSC02522,0.18,0.26,,,
sqz (squeeze),DRSC16980,0.21,0.31,,,
CG30398,DRSC03891,-0.04,0.43,,,
bdl (borderless),DRSC00271,0.45,0.35,,,
CG9368,DRSC11067,0.15,0.3,,,
CG10151,DRSC05974,0.31,0.18,,,
CG13895,DRSC08365,0.4,0.33,,,
CG15432,DRSC00447,0.03,0.07,,,
PolE2 (DNA polymerase epsilon subunit 2),DRSC09737,0.5,0.37,,,
para (paralytic),DRSC19141,0.47,-0.2,,,
para (paralytic),DRSC20360,0.4,0.75,,,
CG13385,DRSC02259,0.23,0.27,,,
l(2)05714 (lethal (2) 05714),DRSC03118,-0.31,-0.29,,,
tmod (tropomodulin),DRSC13993,0.32,0.67,,,
tmod (tropomodulin),DRSC14314,-0.43,-1.45,,,
tmod (tropomodulin),DRSC15076,0.28,0.46,,,
tmod (tropomodulin),DRSC17062,0.43,0.45,,,
CG14177 (retired record),DRSC10176,-0.26,0.36,0.28,-1.32,reduced secretion
SCCRO (Squamous cell carcinoma-related oncogene),DRSC10844,-0.19,-0.07,,,
CG12926,DRSC06239,-3.4,0.16,0.22,-8.92,
CG12926,DRSC21930,0.37,0.13,,,
Elp1 (Elongator complex protein 1),DRSC14250,-0.14,-0.4,,,
CG10550,DRSC14251,0.55,0.46,,,
tbrd-3,DRSC04295,-0.23,-0.22,,,
CG9084,DRSC07335,-0.05,0.31,,,
CG30089,DRSC06126,0.48,0.24,-0.13,0.43,
CG30089,DRSC06127,-6.32,-2.22,,,reduced secretion
CG30089,DRSC06267,0.51,-0.11,,,
CG30089,DRSC06268,0.72,0.4,,,
CG30089,DRSC21694,1.13,0.51,,,
CG15125,DRSC06547,0.51,0.28,,,
CG33689,DRSC09424,0.05,0.29,,,
CG1360,DRSC06406,0.27,0.4,,,
CG11267,DRSC09833,-0.12,0.11,,,
san (separation anxiety),DRSC07695,-0.93,-0.44,,,
Trf4-2 (Topoisomerase related function 4-2),DRSC15237,0.35,0.36,,,
Tango6 (Transport and Golgi organization 6),DRSC02671,-1.96,-1.44,,,reduced secretion
mag (magro),DRSC11787,0.53,0.4,,,

Next part (6 carried over from the part before).
gene,DRSC id,"z-score, replicate 1","z-score, replicate 2","z-score, replicate 3","z-score, replicate 4","phenotype, replicate 1"
CG1360,DRSC06406,0.27,0.4,,,
CG11267,DRSC09833,-0.12,0.11,,,
san (separation anxiety),DRSC07695,-0.93,-0.44,,,
Trf4-2 (Topoisomerase related function 4-2),DRSC15237,0.35,0.36,,,
Tango6 (Transport and Golgi organization 6),DRSC02671,-1.96,-1.44,,,reduced secretion
mag (magro),DRSC11787,0.53,0.4,,,
rno (rhinoceros),DRSC08584,0.59,0.61,,,
CG30122,DRSC06776,-0.01,0.23,,,
CG30122,DRSC06935,0.34,0.24,,,
alpha-Est6 (alpha-Esterase-6),DRSC12618,0.32,0.34,,,
CG7514,DRSC08597,0.21,0.23,,,
Pxd (Peroxidase),DRSC16805,0.27,0.51,,,
CG14312,DRSC14791,0.39,0.33,,,
CG4950,DRSC10463,0.15,0,,,
blow (blown fuse),DRSC07586,0.35,0.34,,,
wbl (windbeutel),DRSC07718,0.33,0.26,,,
Cog6 (Component of oligomeric golgi complex 6),DRSC06806,0.32,0.23,,,
CG30091,DRSC21809,-0.8,0.09,,,
l(3)05822 (lethal (3) 05822),DRSC16202,0.53,0.48,,,
CG31296,DRSC13092,0.18,0.08,,,
Cmpk (Cytidine/uridine monophosphate kinase 1),DRSC16643,0.04,0.23,,,
lola (longitudinals lacking),DRSC05220,-3.72,-1.82,,,reduced secretion
lola (longitudinals lacking),DRSC05221,0.65,0.58,,,
lola (longitudinals lacking),DRSC05222,-0.01,0.07,,,
lola (longitudinals lacking),DRSC05223,-1.62,-1.18,,,reduced secretion
lola (longitudinals lacking),DRSC05224,0.73,0.52,,,
lola (longitudinals lacking),DRSC06738,0.07,0.08,,,
lola (longitudinals lacking),DRSC06739,0.1,0.07,,,
lola (longitudinals lacking),DRSC06740,0.6,0.46,,,
lola (longitudinals lacking),DRSC06741,-8.62,0.46,,,reduced secretion
lola (longitudinals lacking),DRSC06742,-0.81,0.03,,,
lola (longitudinals lacking),DRSC07646,0.43,0.44,,,
lola (longitudinals lacking),DRSC07647,0.4,0.36,,,
